Laboratory results reported in patent US7786172B2 (priority 2002, dated 2010).
For at least one compound, name, drawing or mass did not settle the structure.

What was measured:
[1] = tested on: mastalgia; details: human, in vivo; cited from earlier work
[2] = Example 3: pharmacokinetics of 4-hydroxy tamoxifen gel in healthy premenopausal women; format: in vivo, human

Structure (SMILES) | efficacy at relieving cyclical mastalgia [1] | Plasma concentration of 4-hydroxy tamoxifen, Mean ± SD (Range) ([2]; +8 days after last application, 1 mg/day, gel 20 mg/100 g) | Plasma concentration of 4-hydroxy tamoxifen, Mean ± SD (Range) ([2]; +12 days after last application, 1 mg/day, gel 20 mg/100 g) | Plasma concentration of 4-hydroxy tamoxifen, Mean ± SD (Range) ([2]; +12 days after last application, 1 mg/day, gel 57 mg/100 g) | Plasma concentration of 4-hydroxy tamoxifen, Mean ± SD (Range) ([2]; +20 days after last application, 1 mg/day, gel 57 mg/100 g) | Plasma concentration of 4-hydroxy tamoxifen, Mean ± SD (Range) ([2]; +20 days after last application, 2 mg/day, gel 57 mg/100 g)
CC(C)C[C@H]1C(=O)N2CCC[C@H]2[C@]2(O)O[C@](NC(=O)[C@@H]3C=C4c5cccc6[nH]c(Br)c(c56)C[C@H]4N(C)C3)(C(C)C)C(=O)N12 [bromocriptine] | some efficacy |  |  |  |  | 
CC/C(=C(\c1ccc(O)cc1)c1ccc(OCCN(C)C)cc1)c1ccccc1 [4-hydroxy tamoxifen, 1-[4-(2-N-dimethylaminoethoxy)phenyl]-1-(4-hydroxyphenyl)-2-phenylbut-1-(Z)-ene] |  | (<LOQ-17.4) | (<LOQ-7.0) | (0-<LOQ) | (0-<LOQ) | (0-<LOQ)
